{"sequences": {"note": "The chains behind the UniProt entries cited, without tags or fusion partners. Where a name states a change or a piece, a line headed by the entry shows the natural chain unless it says otherwise.", "UniProt P29352": "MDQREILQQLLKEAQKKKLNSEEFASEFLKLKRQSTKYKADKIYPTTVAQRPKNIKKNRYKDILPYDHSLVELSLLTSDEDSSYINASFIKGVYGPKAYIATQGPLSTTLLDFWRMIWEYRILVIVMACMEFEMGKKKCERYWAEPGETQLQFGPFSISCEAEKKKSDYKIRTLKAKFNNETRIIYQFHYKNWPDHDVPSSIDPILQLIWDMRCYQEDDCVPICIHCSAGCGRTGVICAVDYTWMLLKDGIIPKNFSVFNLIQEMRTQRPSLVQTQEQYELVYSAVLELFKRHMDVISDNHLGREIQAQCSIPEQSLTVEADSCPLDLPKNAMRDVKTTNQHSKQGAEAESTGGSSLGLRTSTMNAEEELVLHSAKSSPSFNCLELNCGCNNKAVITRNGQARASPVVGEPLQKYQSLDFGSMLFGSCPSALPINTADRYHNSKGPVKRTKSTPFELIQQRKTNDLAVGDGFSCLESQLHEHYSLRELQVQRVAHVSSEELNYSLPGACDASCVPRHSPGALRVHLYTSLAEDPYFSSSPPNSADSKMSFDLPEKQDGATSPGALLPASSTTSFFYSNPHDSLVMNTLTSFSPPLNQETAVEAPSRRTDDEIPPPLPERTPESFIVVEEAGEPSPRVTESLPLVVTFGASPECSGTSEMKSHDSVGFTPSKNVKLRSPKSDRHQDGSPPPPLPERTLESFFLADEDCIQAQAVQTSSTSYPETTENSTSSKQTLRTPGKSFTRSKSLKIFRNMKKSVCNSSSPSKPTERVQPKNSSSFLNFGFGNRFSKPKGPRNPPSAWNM", "UniProt Q15691": "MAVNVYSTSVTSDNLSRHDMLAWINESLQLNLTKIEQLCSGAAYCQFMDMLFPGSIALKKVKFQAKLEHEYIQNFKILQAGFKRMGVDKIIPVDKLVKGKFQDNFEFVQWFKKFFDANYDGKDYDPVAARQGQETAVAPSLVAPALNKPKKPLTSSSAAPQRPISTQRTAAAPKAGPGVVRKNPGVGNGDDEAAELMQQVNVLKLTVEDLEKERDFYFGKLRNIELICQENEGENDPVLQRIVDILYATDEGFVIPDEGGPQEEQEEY"}, "source": "paper doi:10.1101/481507", "molecular_target": "PTPN22-Flag ΔP1 (UniProt P29352)", "experiment": "co-IP", "note": "These are yes or no findings as the source states them, for the method shown. Binding seen in cells or lysates may run through a third protein."}
{"substance": "endogenous EB1 (human cells) (from UniProt Q15691 1-268)", "values": [{"measurement": "binding", "value": "no binding"}]}
